Where “and” joins values, the source holds several entries; their conditions need not be identical. Identical values can stand only once. The list shows a part of the results. These are further read-outs of the screen, such as a control signal, another cell line or another target. No call is given for them. Compounds called inactive in the main read-out are mostly missing here. Words in brackets tell the shape of the fitted curve; partial curves, single points and poor fits give uncertain potencies.
Test: qHTS Assay for Lipid Storage Modulators in Drosophila S3 Cells;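 for cell number change: cells counted by Cell Tracker Red CMTPX staining in the red channel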
Conditions: BODIPY lipid droplet fluorescence, 18-24 h; for cell number change: measured here: cell count max response, cells fed with added oleic acid
Procedure, shortened: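 Laser-scanning cytometry quantifies lipid droplet accumulation (500–530 nm total intensity; droplet/cell object ratio) in oleic acid-fed (400 uM added) Drosophila S3 cells treated with a concentration series. 20 uM Triacsin C defined 100% inhibition.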

[1] = measured here: cell number channel AC50, cells fed with added oleic acid
[2] = measured here: lipid fluorescence (Fed channel) AC50, cells fed with added oleic acid

SMILES | cell number change | AC50 [1] | AC50 [2]
CCc1ccc(NC(=O)CN(c2cc(C)cc(C)c2)S(=O)(=O)c2c(C)[nH]c(=O)[nH]c2=O)cc1 | -33.3% | 29.1 µM [falling, single point] | 
Cc1cc(=O)oc2ccc(OC(C)C(=O)O)cc12 (configuration not stated) | -1.05% |  | 32.6 µM [falling, single point]
c1ccc(CCNc2c3c(nc4ncnn24)CCC3)cc1 | -27.9% |  | 
Cc1ccsc1C(C(=O)NCc1ccccc1)N(C(=O)c1csnn1)c1ccccc1 (configuration not stated) | 18.9% |  | 6.51 µM [falling, single point]
CCC(=O)NN1CCN(c2ccncc2S(=O)(=O)N2CCCCC2)CC1 | 15.5% |  | 5.8 µM [rising, single point]
CC(NC(=O)CNC(=O)Cc1cccc2ccccc12)c1ccc(S(N)(=O)=O)cc1 (configuration not stated) | 46.5% | 7.31 µM [rising, partial curve, poor fit] | 
CC(C)CC(=O)N(c1nnc(-c2cccnc2)s1)C1CCCC1 | -14.6% |  | 29.1 µM [falling, single point]
C=CCn1c(SCC(=O)Nc2ccc(NC(C)=O)cc2)nc2sc(C)c(C)c2c1=O | -58.7% | 32.6 µM [falling, partial curve] | 10.3 µM [falling, partial curve, poor fit]
N#Cc1ccccc1S(=O)(=O)N1CCN(CC(=O)Nc2ccccc2C(=O)NC2CC2)CC1 | -7.14% |  | 0.0291 µM [falling, full curve, poor fit]
O=C(Nc1ncc([N+](=O)[O-])s1)c1cccs1 | -61.3% and -1.74% | 16.4 µM [falling, partial curve] | 29.1 µM [falling, single point] and 23.1 µM [falling, single point]
CCN(c1cccc(C)c1)S(=O)(=O)c1cccc(C(=O)O)c1 | -100% | 23.1 µM [falling, partial curve] | 
Cc1ccc2[nH]c(C(=O)N3CCN(C=O)CC3)cc2c1 | -3.7% |  | 
COc1cc([N+](=O)[O-])ccc1NC(=O)CSc1nc2ccccc2n1-c1ccccc1 | 7.33% |  | 8.2 µM [rising, partial curve]
Cc1ccc(C(=O)N[C@H](C(=O)NC2CCCCCCC2)C(C)C)cc1 | 4.47% |  | 1.84 µM [falling, partial curve]
Cc1cccc(C(=O)N/N=C/c2ccc[nH]2)c1 | -5.35% | 0.651 µM [falling, full curve] | 0.651 µM [falling, partial curve, poor fit]
COc1cc(C(=O)O[C@H]2CC(C)=CC[C@@]3(C)CC[C@@](O)(C(C)C)[C@H]23)ccc1O | -27.9% |  | 10.3 µM [falling, partial curve]
O=C1CCC(C(=O)OC(C(=O)c2c[nH]c3ccccc23)c2ccccc2)=NN1 (configuration not stated) | -80.8% | 32.6 µM [falling, partial curve, poor fit] | 4.11 µM [falling, partial curve]
O=C(O)CCCN1C(=O)C2C3CCC(O3)C2C1=O (configuration not stated) | -9.81% |  | 0.82 µM [falling, single point]
CC1C(=O)Nc2ccccc2N1C(=O)c1ccccc1 (configuration not stated) |  |  | 4.61 µM [rising, single point]
Cc1ccc(CN(C)CCc2ccccn2)cc1 | 20.1% | 0.0291 µM [rising, full curve, poor fit] | 3.26 µM [falling, full curve, poor fit]

SMILES | cell number change | AC50 [1] | AC50 [2]
Cc1oc(-c2cccc(Cl)c2)nc1CS(=O)(=O)CC(=O)NC1CCCC1 | 10.4% |  | 
COc1ccc(NC(=O)/C(C#N)=C/c2ccc(OCCN3CCOCC3)c(OC)c2)c(OC)c1 | 13.1% |  | 0.092 µM [rising, full curve, poor fit]
CO/N=C(/CS(=O)Cc1ccccc1Cl)c1ccc(Cl)cc1Cl (configuration not stated) | -24.4% |  | 29.1 µM [falling, single point]
COc1ccc(NC(=O)CCNS(=O)(=O)c2ccc3c(c2)c(=O)n(C)c(=O)n3C)cc1 | -14.6% |  | 
CCOc1cc(/C=C(\C#N)C(=O)NCC2CCCO2)ccc1OCC(N)=O (configuration not stated) | 2.77% |  | 7.31 µM [rising, single point]
CCOC(=O)C(NC(=O)CC)(N1CCc2ccccc2C1)C(F)(F)F (configuration not stated) | -9.57% | 6.51 µM [falling, single point] | 
CCCn1c(N)c(N(CCOC)C(=O)c2cc3c(s2)CCC(CC)C3)c(=O)[nH]c1=O (configuration not stated) | 16.8% |  | 0.103 µM [falling, full curve, poor fit]
CCn1c2ccccc2c2nnc(SCCCn3c(=O)[nH]c4ccccc43)nc21 | -7.93% |  | 0.291 µM [rising, partial curve, poor fit]
C/C(N)=C(/C#N)C(=O)CN1C(=O)NC(Cc2c[nH]c3ccccc23)C1=O (configuration not stated) | 18.2% |  | 0.206 µM [rising, full curve, poor fit]
O=C(O)c1ccc(-c2nc(-c3ccccc3)c(-c3ccccc3)[nH]2)cc1 | -6.61% |  | 18.4 µM [rising, partial curve]
O=C(OCC(=O)N1CCOCC1)c1ccccc1OCc1ccccc1 | -6.22% |  | 25.9 µM [rising, single point]
CCn1c(SCC(=O)Nc2ccc3c(c2)OCCO3)nnc1-c1cccnc1 |  |  | 0.082 µM [falling, partial curve, poor fit]
CCOc1ccccc1NC(=O)NC1(C(=O)NCC2CCCO2)CCCCC1 (configuration not stated) | 14.5% |  | 20.6 µM [rising, single point]
Cc1ccc(OCC(=O)N/N=C/c2cn(C)c3ccccc23)cc1 | 5.66% |  | 3.66 µM [falling, single point]
CCn1c(CC(=O)Nc2ccccc2Cl)nnc1SCC(=O)NC1CCCC1 | 7.89% |  | 
Cc1ccc(C(=O)/C=C/NNC(=O)c2ccccc2O)cc1 | -3.16% |  | 29.1 µM [rising, single point]
CCN=C1SC(C(N)=O)CC(=O)N1CC (configuration not stated) | -3.44% |  | 2.59 µM [falling, full curve, poor fit]
O=C(Nc1nnc(S(=O)(=O)N2CCCCC2)s1)c1ccccc1Br | 13.3% |  | 3.66 µM [rising, full curve]
CCn1cc(C2=NOC(C(=O)Nc3cc(C)nn3-c3ccccc3)C2)c(C)n1 (configuration not stated) |  | 0.411 µM [rising, partial curve, poor fit] | 0.461 µM [rising, full curve, poor fit]
C#Cc1ccc(CN2CCC(C(=O)Nc3ccc(Oc4ccccc4)nc3)CC2)cc1 | -5.67% |  | 29.1 µM [falling, single point]

SMILES | cell number change | AC50 [1] | AC50 [2]
Cc1ccc(NC(=O)[C@@H]2CCCN2C(=O)[C@@H]2Cc3ccccc3CN2)c(C)c1 | -1.61% |  | 16.4 µM [rising, single point]
C/C(N)=C(/C#N)C(=O)COC(=O)c1cc(-c2ccc(C)cc2)nc2ccccc12 | -11.3% |  | 6.51 µM [rising, partial curve, poor fit]
CN(C(=O)CSc1nc(-c2ccc(F)cc2)cs1)C1CCS(=O)(=O)C1 (configuration not stated) | -30.5% |  | 0.0058 µM [falling, full curve, poor fit]
COc1ccc(NC(=O)CN(C)C(=O)COc2ccccc2Cc2ccccc2)cc1 | -11.5% |  | 0.00651 µM [rising, full curve, poor fit]
COCCNC(=O)/C(C#N)=C/C=C/c1ccccc1[N+](=O)[O-] | -21.2% | 0.00517 µM [rising, full curve, poor fit] | 
COc1ccc(C2C(C(C)=O)=C(C)Nc3ncnn32)cc1OC (configuration not stated) |  |  | 5.8 µM [falling, single point]
Cc1ccc(-c2cc(C(=O)N/N=C/C=C/c3ccco3)c3ccccc3n2)cc1C | -14.5% |  | 
CCOc1ccc(CN(C)C(=O)CCl)cc1 | -36.4% |  | 
COC(=O)CSc1nnc(NC(=O)C2CC(=O)N(c3ccc(F)cc3)C2)s1 (configuration not stated) | -6.94% |  | 
COCCn1c(C)cc(O)c(C(=O)Nc2cccc(Cl)c2)c1=O | -16.2% |  | 2.91 µM [falling, full curve]
O=C1OC(c2ccccc2)=C/C1=C/N1CCOCC1 | -16.7% |  | 29.1 µM [rising, single point]
Cc1ccc(S(=O)(=O)N2CCN(C(=O)COC(=O)CCOc3ccccc3C)CC2)cc1 | 2.61% |  | 9.2 µM [falling, partial curve, poor fit]
COc1ccc(NC(=O)c2ccc([N+](=O)[O-])o2)cc1 | -54.4% | 29.1 µM [falling, single point] | 0.291 µM [falling, partial curve, poor fit]
CN(C)c1cccc(C(=O)NCc2ccccc2)c1 | 46.9% |  | 6.51 µM [rising, partial curve, poor fit]
COC(=O)c1coc(-c2ccc(C)cc2)c1C(=O)OC | 74.1% | 20.6 µM [rising, partial curve] | 
COc1ccc(OCCN2CCN(C(=O)c3ccc(OC)c(OC)c3)CC2)cc1 | -12.4% |  | 
CC(C)Oc1cccc(C(=O)C2CCCN(C(=O)c3cc(C4CC4)[nH]n3)C2)c1 (configuration not stated) |  |  | 4.11 µM [rising, partial curve]
Cc1cccc(NC(=O)Cc2ccc(F)cc2)c1 | -2.5% |  | 13 µM [rising, partial curve]
O=C(Nc1ccc([N+](=O)[O-])cc1)c1cncc(Br)c1 | -9.19% |  | 
O=C(/C=C/c1ccccc1)NC(NC(=S)Nc1ccc(C(=O)O)cc1)C(Cl)(Cl)Cl (configuration not stated) | -3.69% |  | 0.13 µM [falling, full curve, poor fit]

— PubChem BioAssay AID2685 (National Center for Advancing Translational Sciences (NCATS), 2010)
